Data reported in the supplement of paper PMC12819154, “High-throughput peptide-centric local stability assay extends protein–ligand identification to membrane proteins, tissues and bacteria” (Nature Structural & Molecular Biology, 2025).
The other results are listed elsewhere or left out. Most values lie at the level of the controls, where differences are scatter.

By UniProt entry, the sequences of proteins in these tests, tags left out. Where a name states a change or a piece, a line headed by the entry shows the natural chain unless it says otherwise.
UniProt Q9Y576: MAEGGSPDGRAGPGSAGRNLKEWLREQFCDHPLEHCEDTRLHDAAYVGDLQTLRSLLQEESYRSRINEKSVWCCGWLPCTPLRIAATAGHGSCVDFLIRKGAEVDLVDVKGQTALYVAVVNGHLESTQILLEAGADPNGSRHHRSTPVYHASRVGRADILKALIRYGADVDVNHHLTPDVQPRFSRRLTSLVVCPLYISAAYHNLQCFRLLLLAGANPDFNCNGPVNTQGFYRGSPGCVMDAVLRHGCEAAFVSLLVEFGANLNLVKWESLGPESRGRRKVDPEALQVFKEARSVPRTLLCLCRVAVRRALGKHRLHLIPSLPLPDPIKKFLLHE
UniProt Q9Y4C2: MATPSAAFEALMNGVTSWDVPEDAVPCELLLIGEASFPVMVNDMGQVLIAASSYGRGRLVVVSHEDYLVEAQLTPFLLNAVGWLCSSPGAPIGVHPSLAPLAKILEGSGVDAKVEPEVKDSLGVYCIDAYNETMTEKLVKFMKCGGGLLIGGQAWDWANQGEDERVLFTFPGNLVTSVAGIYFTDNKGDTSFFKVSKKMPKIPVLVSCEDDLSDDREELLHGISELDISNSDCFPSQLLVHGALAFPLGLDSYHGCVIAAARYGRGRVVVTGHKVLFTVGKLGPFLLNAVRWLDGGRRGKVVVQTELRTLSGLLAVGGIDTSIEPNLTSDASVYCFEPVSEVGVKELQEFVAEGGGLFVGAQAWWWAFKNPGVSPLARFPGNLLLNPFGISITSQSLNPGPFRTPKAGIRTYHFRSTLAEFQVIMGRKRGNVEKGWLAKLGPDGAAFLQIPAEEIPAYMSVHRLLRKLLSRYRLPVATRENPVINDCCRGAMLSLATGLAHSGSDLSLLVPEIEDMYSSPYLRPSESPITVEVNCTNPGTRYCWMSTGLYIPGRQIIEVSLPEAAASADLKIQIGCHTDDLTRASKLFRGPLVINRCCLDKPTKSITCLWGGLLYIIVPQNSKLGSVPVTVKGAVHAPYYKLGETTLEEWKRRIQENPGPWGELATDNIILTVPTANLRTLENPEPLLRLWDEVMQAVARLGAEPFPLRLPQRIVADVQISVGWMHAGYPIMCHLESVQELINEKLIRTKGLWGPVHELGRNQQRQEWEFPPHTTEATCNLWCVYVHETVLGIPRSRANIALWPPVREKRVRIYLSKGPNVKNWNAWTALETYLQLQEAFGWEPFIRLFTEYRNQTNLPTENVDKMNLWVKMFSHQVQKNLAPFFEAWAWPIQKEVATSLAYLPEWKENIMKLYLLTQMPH
UniProt Q9Y3L3: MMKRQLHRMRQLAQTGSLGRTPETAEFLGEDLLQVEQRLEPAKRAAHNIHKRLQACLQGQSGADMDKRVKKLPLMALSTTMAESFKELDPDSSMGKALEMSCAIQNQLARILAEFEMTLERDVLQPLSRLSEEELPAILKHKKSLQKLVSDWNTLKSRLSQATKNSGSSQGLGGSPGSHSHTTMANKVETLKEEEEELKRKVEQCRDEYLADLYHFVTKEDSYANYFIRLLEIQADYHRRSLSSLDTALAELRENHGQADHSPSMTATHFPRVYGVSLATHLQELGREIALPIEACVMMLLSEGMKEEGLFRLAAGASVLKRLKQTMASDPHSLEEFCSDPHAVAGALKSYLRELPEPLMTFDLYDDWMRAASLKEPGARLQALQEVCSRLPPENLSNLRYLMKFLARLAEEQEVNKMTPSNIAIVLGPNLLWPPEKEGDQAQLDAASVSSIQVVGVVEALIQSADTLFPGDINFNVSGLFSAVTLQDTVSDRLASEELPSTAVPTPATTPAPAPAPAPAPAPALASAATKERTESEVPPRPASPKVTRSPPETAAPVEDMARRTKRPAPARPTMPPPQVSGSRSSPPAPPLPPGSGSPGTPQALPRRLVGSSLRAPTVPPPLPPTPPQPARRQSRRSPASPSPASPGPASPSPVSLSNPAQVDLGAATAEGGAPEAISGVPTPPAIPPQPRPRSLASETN
UniProt Q9Y5J6: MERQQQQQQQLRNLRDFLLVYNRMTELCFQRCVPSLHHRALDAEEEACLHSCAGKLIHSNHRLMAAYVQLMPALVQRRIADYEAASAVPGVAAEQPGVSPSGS
UniProt Q9Y657, whole entry: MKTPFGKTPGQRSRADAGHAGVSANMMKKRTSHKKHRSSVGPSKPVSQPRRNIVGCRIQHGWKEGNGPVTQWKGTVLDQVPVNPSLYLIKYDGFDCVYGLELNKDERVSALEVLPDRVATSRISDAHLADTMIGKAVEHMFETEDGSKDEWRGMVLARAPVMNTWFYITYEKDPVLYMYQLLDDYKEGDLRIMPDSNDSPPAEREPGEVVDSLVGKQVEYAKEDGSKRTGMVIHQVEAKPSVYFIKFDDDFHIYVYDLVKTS
UniProt Q9Y4E8: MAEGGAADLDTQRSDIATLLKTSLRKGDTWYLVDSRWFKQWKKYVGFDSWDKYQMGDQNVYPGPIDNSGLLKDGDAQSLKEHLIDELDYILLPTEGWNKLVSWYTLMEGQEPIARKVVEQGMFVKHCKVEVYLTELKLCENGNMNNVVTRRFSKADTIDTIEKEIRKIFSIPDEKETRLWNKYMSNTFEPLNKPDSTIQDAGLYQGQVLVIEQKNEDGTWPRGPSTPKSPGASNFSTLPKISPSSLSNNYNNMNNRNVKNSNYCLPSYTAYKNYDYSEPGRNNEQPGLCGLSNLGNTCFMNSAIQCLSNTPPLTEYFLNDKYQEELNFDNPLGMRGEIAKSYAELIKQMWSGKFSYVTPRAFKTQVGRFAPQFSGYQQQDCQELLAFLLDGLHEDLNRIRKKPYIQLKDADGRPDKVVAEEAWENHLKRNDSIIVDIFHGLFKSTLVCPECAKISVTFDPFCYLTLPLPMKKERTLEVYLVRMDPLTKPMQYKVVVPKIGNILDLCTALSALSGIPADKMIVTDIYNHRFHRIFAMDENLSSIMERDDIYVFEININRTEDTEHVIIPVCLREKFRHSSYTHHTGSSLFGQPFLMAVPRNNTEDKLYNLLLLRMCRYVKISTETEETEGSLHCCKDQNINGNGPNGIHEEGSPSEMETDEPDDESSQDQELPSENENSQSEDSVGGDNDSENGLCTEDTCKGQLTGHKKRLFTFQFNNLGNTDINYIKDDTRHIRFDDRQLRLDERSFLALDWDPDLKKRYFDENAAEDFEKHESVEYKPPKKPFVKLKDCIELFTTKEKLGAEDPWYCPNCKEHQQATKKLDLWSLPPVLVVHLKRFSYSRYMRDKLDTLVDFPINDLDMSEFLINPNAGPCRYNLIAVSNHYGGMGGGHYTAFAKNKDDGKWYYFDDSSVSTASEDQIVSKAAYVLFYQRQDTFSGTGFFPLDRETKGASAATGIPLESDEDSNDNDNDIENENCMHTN
UniProt Q9Y6Y8: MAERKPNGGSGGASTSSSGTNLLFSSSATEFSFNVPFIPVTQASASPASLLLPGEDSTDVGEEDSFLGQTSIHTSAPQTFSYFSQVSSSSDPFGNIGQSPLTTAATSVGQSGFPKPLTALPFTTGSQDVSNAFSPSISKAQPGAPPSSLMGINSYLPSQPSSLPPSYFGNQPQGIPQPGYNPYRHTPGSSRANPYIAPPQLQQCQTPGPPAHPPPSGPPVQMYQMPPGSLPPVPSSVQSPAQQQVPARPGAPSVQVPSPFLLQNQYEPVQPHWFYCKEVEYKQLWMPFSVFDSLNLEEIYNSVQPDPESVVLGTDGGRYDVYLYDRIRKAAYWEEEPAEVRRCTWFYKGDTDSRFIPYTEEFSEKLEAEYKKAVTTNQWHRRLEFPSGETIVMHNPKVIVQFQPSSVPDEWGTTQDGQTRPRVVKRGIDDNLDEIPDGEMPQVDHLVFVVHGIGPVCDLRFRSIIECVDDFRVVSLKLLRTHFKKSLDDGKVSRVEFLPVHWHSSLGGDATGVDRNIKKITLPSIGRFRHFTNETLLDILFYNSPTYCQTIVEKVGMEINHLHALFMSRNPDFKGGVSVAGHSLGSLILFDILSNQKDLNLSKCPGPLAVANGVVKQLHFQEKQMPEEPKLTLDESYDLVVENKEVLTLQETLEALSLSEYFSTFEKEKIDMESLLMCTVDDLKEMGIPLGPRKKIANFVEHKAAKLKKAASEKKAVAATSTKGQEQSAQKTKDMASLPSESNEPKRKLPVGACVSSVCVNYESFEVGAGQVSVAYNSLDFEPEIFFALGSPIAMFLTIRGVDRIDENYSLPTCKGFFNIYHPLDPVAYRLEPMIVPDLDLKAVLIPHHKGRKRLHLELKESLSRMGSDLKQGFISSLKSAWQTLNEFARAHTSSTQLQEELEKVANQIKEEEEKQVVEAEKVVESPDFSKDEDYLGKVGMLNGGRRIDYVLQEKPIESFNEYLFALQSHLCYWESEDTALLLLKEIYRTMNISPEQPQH
UniProt Q9Y608: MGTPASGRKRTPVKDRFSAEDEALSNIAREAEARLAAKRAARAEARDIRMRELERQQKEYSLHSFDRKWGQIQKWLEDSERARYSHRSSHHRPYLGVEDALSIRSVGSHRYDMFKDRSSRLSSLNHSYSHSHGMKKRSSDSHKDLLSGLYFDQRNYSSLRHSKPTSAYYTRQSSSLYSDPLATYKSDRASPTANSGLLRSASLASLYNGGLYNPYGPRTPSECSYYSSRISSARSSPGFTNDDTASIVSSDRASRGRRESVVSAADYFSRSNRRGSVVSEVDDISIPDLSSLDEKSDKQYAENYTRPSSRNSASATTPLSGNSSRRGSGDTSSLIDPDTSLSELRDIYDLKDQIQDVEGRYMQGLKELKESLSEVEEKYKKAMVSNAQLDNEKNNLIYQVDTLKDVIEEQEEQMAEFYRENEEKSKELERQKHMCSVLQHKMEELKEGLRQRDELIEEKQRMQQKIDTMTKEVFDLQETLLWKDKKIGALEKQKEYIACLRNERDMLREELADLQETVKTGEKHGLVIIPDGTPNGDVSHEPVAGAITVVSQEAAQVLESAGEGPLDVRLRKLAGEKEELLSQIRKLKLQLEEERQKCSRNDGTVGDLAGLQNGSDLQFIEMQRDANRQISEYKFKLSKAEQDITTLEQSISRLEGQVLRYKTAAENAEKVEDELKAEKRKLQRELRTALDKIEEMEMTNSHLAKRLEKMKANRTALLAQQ
UniProt Q9Y5X2: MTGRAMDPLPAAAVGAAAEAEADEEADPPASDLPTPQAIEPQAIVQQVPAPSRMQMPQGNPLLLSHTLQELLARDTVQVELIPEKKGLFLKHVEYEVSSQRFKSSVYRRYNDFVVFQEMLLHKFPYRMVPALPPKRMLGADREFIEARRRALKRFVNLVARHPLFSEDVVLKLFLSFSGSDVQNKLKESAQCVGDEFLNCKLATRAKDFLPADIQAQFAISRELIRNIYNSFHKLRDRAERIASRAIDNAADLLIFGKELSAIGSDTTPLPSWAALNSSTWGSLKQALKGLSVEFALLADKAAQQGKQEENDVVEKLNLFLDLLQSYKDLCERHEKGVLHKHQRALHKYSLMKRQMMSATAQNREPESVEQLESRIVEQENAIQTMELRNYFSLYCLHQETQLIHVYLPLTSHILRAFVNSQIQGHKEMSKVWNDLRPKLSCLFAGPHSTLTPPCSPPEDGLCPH
UniProt Q9Y4P1: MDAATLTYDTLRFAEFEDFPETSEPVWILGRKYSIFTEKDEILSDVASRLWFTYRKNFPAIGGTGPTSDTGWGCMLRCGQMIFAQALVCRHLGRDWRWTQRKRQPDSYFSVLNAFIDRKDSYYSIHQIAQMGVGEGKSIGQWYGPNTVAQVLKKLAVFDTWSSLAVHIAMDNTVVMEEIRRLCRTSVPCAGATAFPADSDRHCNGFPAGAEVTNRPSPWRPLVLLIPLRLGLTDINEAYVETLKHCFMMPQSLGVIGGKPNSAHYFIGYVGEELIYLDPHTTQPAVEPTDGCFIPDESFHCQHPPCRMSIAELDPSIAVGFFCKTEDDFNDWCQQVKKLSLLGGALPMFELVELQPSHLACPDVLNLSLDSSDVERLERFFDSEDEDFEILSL
UniProt Q9Y6U3: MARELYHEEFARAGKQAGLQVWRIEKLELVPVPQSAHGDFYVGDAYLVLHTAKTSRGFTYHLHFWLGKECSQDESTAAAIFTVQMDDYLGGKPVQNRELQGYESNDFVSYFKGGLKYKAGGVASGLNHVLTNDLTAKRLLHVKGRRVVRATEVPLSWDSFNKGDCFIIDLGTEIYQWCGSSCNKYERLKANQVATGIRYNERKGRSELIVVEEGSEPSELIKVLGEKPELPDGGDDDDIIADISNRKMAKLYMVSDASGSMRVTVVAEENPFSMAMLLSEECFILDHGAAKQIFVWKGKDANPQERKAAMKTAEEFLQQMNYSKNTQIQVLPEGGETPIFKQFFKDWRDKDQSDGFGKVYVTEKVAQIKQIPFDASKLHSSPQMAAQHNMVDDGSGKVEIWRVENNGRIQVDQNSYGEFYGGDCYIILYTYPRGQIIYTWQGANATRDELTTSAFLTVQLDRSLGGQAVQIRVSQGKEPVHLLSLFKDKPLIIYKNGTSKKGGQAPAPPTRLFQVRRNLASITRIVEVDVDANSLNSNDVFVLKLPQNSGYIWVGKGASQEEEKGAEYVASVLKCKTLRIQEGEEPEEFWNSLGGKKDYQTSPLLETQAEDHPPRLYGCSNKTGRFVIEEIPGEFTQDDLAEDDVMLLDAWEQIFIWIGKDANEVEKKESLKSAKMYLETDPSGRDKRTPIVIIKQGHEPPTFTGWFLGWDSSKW

compound: CN[C@@H]1C[C@H]2O[C@@](C)([C@@H]1OC)n1c3ccccc3c3c4c(c5c6ccccc6n2c5c31)C(=O)NC4 [staurosporine]; experiment: log2 fold change of tryptic peptide abundance, ligand vs vehicle (limited proteolysis) (log2 ratio); higher = more trypsin-susceptible (destabilized); conditions: ligand concentration: 20 uM; sample: K562 cleared lysate; digestion: 4 min, 22 C (HT-PELSA RT4min, Orbitrap Astral)

| Target | log2 fold change |
| --- | --- |
| MRPS23 (peptide sequence: LGETDEEKLFVETGK, peptide start residue: 109) (UniProt Q9Y3D9) | -0.168 |
| ASB1 (peptide sequence: IAATAGHGSCVDFLIR, peptide start residue: 84) (UniProt Q9Y576) | -0.324 |
| NUMBL (peptide sequence: EKECGVTAAFDASR, peptide start residue: 203) (UniProt Q9Y6R0) | -0.323 |
| FBXO7 (peptide sequence: TWPLEVPETEPTLGHLR, peptide start residue: 11) (UniProt Q9Y3I1) | 0.394 |
| NUB1 (peptide sequence: GTGNDNYR, peptide start residue: 71) (UniProt Q9Y5A7) | -0.382 |
| UniProt Q9Y473 (peptide sequence: TLNTESNCEYKDPGK, peptide start residue: 166) | -0.162 |
| AFG3L2 (peptide sequence: VALLLLEK, peptide start residue: 726) (UniProt Q9Y4W6) | 0.289 |
| CCDC61 (peptide sequence: ELEAQLGR, peptide start residue: 194) (UniProt Q9Y6R9) | -0.179 |
| SNX11 (peptide sequence: GDQPKSCCFLPR, peptide start residue: 175) (UniProt Q9Y5W9) | -0.4 |
| TCAF1 (peptide sequence: GRVVVTGHK, peptide start residue: 266) (UniProt Q9Y4C2) | 0.353 |
| UniProt Q9Y4F3 (peptide sequence: ELQQLLQEAFAR, peptide start residue: 806) | -0.58 |
| SH3BP1 (peptide sequence: RSLSSLDTALAELR, peptide start residue: 240) (UniProt Q9Y3L3) | 0.265 |
| MTCL1 (peptide sequence: LGELGSSAESK, peptide start residue: 1196) (UniProt Q9Y4B5) | -0.581 |
| KIF3A (peptide sequence: LDMEEEERNK, peptide start residue: 437) (UniProt Q9Y496) | -0.678 |
| AMMECR1 (peptide sequence: AAGCCGVKK, peptide start residue: 2) (UniProt Q9Y4X0) | -0.102 |
| HCFC2 (peptide sequence: ETPSNPVATVK, peptide start residue: 582) (UniProt Q9Y5Z7) | 0.146 |
| TIMM10B (peptide sequence: MTELCFQR, peptide start residue: 24) (UniProt Q9Y5J6) | 0.392 |
| SPIN1 (peptide sequence: VSALEVLPDR, peptide start residue: 108) (UniProt Q9Y657) | 0.31 |
| STRAP (peptide sequence: IYDLNKPEAEPK, peptide start residue: 126) (UniProt Q9Y3F4) | -0.147 |

| Target | log2 fold change |
| --- | --- |
| USP15 (peptide sequence: MDPLTKPMQYK, peptide start residue: 483) (UniProt Q9Y4E8) | 0.317 |
| RNF114 (peptide sequence: YQNYIMEGVK, peptide start residue: 113) (UniProt Q9Y508) | 0.144 |
| SEC23IP (peptide sequence: TKDMASLPSESNEPK, peptide start residue: 732) (UniProt Q9Y6Y8) | -0.267 |
| BZW2 (peptide sequence: FLDSTGSRLDYRR, peptide start residue: 51) (UniProt Q9Y6E2) | 0.787 |
| UniProt Q9Y3C0 (peptide sequence: FSTVCEEK, peptide start residue: 44) | -0.357 |
| LRRFIP2 (peptide sequence: QYAENYTRPSSR, peptide start residue: 299) (UniProt Q9Y608) | -0.217 |
| SNX8 (peptide sequence: LKESAQCVGDEFLNCK, peptide start residue: 186) (UniProt Q9Y5X2) | 0.306 |
| CHMP3 (peptide sequence: AHMNSVLMGMK, peptide start residue: 82) (UniProt Q9Y3E7) | 0.196 |
| UniProt Q9Y462 (peptide sequence: VDKTHEFTEYTR, peptide start residue: 442) | -0.867 |
| WDR7 (peptide sequence: NVILMAHDGK, peptide start residue: 1475) (UniProt Q9Y4E6) | 0.199 |
| MSRB2 (peptide sequence: LTPEQFYVTR, peptide start residue: 58) (UniProt Q9Y3D2) | -0.101 |
| ATG4B (peptide sequence: SIGQWYGPNTVAQVLKK, peptide start residue: 138) (UniProt Q9Y4P1) | 0.217 |
| TAF6L (peptide sequence: VYGAILVAVER, peptide start residue: 358) (UniProt Q9Y6J9) | -0.425 |
| CLIC4 (peptide sequence: EMTGIWR, peptide start residue: 213) (UniProt Q9Y696) | 0.171 |
| SCIN (peptide sequence: QIPFDASK, peptide start residue: 370) (UniProt Q9Y6U3) | 0.0458 |
| CSAD (peptide sequence: FFNQLFSGLDPHALAGR, peptide start residue: 89) (UniProt Q9Y600) | -0.774 |
| TIMM13 (peptide sequence: VQIAVANAQELLQR, peptide start residue: 28) (UniProt Q9Y5L4) | -0.342 |
| AP4S1 (peptide sequence: ILAPLLILDK, peptide start residue: 131) (UniProt Q9Y587) | -0.158 |
| UniProt Q9Y6X3 (peptide sequence: HQEVLYSLLER, peptide start residue: 433) | -0.115 |

8 entries from above, in CSV form.
Target,log2 fold change
"RNF114 (peptide sequence: YQNYIMEGVK, peptide start residue: 113) (UniProt Q9Y508)",0.144
"SEC23IP (peptide sequence: TKDMASLPSESNEPK, peptide start residue: 732) (UniProt Q9Y6Y8)",-0.267
"BZW2 (peptide sequence: FLDSTGSRLDYRR, peptide start residue: 51) (UniProt Q9Y6E2)",0.787
"UniProt Q9Y3C0 (peptide sequence: FSTVCEEK, peptide start residue: 44)",-0.357
"LRRFIP2 (peptide sequence: QYAENYTRPSSR, peptide start residue: 299) (UniProt Q9Y608)",-0.217
"SNX8 (peptide sequence: LKESAQCVGDEFLNCK, peptide start residue: 186) (UniProt Q9Y5X2)",0.306
"CHMP3 (peptide sequence: AHMNSVLMGMK, peptide start residue: 82) (UniProt Q9Y3E7)",0.196
"UniProt Q9Y462 (peptide sequence: VDKTHEFTEYTR, peptide start residue: 442)",-0.867
